Results as given in the supplement of paper PMC12067093, “Discovery and optimisation of a covalent ligand for TRIM25 and its application to targeted protein ubiquitination” (Chemical Science, 2025).
This is one part of the list.

By UniProt entry, the sequences of proteins in these tests, tags left out. Where a name states a change or a piece, a line headed by the entry shows the natural chain unless it says otherwise.
UniProt O14713: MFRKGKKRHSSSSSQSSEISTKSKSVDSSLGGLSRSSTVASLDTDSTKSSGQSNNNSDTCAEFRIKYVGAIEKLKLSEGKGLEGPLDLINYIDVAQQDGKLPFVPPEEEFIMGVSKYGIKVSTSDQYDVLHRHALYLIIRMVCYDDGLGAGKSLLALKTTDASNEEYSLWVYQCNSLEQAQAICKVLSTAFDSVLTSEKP
UniProt O95373, whole entry, looked up: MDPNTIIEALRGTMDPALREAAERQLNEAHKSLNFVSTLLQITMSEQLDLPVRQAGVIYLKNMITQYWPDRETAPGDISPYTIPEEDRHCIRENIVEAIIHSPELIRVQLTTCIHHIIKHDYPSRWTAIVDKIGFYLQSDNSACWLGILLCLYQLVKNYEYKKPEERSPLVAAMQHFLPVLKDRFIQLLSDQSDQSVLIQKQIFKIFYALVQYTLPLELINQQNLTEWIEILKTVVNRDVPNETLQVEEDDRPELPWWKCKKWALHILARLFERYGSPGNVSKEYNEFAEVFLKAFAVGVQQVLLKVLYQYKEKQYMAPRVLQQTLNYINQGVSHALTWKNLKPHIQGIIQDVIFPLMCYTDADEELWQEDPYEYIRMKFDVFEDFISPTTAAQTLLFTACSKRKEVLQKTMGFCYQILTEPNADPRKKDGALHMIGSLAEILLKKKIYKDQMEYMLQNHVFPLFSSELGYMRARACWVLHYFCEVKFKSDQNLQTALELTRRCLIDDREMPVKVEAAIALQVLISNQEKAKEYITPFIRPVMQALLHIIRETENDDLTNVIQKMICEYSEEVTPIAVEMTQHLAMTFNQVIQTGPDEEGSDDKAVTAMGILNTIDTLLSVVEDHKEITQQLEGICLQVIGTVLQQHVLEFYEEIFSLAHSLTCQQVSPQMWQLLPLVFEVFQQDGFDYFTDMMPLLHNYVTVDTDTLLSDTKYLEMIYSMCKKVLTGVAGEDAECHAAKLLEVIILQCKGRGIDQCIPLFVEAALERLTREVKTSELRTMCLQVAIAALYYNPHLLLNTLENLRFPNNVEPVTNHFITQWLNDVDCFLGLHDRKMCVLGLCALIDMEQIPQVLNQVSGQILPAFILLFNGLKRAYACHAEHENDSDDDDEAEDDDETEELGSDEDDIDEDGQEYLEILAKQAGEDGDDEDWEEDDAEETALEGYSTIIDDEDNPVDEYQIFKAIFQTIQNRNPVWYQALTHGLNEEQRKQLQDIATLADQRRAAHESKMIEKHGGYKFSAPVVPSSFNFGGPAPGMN
UniProt O15397, whole entry, looked up: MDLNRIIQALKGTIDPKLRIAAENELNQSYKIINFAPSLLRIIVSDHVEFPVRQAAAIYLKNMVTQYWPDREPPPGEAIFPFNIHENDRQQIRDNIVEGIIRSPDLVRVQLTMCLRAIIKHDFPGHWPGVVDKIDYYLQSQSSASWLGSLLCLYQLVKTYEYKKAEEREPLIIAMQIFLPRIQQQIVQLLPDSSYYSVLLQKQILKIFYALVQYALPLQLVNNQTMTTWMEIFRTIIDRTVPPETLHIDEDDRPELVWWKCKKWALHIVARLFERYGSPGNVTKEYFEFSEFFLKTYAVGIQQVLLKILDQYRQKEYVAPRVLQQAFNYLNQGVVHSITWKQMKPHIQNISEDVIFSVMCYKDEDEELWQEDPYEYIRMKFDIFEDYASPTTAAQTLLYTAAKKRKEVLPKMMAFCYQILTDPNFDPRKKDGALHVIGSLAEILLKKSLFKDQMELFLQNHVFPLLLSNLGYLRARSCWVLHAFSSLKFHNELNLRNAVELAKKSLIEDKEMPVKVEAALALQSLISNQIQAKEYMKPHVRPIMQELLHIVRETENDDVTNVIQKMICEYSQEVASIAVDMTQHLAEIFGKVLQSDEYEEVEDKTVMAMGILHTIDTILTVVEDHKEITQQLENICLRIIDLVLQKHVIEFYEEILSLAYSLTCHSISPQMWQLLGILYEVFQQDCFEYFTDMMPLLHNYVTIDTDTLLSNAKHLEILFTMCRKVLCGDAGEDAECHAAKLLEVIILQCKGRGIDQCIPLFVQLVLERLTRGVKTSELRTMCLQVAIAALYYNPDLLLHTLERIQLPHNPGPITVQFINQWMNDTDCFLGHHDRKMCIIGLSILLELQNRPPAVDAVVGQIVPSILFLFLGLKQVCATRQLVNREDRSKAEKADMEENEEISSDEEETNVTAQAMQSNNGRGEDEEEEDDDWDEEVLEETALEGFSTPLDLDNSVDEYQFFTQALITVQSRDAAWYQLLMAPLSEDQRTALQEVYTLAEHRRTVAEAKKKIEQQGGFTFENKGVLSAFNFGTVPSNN
UniProt Q68E01, whole entry, looked up: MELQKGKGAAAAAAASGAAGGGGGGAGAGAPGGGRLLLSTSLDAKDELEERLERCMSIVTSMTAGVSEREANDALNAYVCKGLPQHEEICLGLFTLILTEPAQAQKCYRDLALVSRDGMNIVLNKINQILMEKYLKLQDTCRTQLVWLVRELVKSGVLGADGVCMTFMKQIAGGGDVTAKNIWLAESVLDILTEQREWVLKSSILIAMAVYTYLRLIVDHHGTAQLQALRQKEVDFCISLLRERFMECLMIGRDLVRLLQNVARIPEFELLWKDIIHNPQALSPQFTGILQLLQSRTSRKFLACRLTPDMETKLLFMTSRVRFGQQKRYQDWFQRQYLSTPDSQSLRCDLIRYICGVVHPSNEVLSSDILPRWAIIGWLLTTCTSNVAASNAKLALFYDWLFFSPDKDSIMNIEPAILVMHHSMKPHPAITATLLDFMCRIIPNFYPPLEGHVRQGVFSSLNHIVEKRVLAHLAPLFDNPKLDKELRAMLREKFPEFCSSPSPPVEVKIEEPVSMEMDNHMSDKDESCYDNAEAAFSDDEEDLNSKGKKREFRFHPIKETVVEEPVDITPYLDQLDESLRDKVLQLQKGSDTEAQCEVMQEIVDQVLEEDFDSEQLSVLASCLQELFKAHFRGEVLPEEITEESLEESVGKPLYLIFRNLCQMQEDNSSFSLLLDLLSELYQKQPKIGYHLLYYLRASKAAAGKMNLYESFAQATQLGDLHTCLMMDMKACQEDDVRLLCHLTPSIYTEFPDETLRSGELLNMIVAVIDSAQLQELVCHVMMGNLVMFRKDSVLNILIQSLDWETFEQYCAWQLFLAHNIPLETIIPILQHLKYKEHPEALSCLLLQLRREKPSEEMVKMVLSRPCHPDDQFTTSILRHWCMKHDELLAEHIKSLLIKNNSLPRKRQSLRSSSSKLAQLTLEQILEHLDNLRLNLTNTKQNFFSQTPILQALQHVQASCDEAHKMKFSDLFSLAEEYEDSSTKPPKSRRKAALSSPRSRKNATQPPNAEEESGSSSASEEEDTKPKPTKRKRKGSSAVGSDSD
UniProt Q8WZA9: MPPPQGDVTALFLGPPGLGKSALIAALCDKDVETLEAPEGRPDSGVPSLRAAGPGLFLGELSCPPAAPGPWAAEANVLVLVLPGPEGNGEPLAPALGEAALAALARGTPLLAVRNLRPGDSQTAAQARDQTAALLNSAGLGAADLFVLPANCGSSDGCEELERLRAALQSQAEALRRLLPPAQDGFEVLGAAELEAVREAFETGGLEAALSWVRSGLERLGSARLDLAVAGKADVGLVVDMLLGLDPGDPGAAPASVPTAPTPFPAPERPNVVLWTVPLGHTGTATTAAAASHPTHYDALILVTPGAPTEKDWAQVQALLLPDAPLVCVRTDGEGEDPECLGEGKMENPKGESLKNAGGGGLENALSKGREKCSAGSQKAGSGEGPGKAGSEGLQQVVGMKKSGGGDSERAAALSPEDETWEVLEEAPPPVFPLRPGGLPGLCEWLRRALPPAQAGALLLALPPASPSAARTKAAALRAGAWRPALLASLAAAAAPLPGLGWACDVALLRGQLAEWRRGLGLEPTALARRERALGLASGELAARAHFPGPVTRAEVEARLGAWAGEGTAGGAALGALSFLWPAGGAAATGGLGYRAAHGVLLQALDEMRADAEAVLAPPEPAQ
UniProt Q86VI3: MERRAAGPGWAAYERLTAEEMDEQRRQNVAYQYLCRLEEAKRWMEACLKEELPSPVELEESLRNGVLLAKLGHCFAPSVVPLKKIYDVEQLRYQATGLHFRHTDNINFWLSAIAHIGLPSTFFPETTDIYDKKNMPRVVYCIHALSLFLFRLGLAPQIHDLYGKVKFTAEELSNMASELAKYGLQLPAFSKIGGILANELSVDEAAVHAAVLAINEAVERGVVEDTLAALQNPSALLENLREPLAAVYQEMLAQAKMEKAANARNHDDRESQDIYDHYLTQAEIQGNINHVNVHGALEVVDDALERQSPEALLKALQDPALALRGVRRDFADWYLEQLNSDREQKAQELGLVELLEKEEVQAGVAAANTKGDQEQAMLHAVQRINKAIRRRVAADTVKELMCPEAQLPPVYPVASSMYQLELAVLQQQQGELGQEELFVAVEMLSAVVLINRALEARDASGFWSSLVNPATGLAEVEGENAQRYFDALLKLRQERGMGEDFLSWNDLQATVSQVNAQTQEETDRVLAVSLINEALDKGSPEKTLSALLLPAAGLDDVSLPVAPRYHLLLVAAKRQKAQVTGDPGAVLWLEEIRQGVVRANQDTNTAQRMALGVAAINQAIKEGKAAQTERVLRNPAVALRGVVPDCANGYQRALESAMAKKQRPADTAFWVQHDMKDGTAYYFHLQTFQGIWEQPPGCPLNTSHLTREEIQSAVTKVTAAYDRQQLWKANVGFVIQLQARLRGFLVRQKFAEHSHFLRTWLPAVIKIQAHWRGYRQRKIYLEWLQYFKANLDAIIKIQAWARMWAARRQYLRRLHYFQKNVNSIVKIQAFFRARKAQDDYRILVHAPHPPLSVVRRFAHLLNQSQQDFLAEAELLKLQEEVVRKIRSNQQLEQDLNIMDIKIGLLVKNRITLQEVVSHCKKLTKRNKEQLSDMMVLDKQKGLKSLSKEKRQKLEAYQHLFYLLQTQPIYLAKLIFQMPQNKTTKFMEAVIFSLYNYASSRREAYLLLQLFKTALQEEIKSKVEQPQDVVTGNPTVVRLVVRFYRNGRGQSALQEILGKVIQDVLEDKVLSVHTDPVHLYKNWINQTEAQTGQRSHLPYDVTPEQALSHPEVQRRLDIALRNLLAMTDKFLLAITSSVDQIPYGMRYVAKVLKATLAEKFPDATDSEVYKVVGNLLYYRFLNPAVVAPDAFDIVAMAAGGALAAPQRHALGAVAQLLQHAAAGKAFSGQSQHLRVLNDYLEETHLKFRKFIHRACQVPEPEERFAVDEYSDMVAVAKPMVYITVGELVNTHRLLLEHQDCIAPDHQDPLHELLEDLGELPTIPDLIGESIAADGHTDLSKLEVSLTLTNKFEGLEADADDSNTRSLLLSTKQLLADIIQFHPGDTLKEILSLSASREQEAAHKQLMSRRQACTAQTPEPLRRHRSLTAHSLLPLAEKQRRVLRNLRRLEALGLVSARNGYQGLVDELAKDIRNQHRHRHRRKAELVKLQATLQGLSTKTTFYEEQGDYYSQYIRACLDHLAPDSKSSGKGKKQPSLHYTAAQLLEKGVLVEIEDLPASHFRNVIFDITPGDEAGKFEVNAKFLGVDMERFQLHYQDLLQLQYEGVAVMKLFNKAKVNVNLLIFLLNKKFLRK
UniProt P05107, whole entry, looked up: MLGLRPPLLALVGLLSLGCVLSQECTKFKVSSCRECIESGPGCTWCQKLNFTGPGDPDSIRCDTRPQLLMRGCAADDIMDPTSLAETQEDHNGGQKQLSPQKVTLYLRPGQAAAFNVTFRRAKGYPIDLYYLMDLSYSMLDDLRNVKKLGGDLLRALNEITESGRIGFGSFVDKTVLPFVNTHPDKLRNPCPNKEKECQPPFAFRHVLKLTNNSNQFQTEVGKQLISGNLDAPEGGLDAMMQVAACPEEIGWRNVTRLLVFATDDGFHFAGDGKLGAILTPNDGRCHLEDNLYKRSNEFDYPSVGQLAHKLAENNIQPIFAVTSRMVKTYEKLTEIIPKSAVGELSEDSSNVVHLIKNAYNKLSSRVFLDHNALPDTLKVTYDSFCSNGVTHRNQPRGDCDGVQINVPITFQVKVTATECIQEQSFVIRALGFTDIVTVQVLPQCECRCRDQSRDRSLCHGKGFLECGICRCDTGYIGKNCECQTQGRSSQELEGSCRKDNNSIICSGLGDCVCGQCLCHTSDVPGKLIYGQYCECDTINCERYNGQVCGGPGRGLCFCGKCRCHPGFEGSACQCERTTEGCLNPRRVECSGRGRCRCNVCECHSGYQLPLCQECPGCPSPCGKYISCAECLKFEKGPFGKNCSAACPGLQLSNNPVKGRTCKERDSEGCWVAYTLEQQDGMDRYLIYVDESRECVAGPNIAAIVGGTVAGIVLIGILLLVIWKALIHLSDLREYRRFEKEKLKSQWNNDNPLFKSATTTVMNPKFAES

What follows are targets tested with Cc1cc(ccc1-c1ccccc1)C(=O)N1CCCN(CC1)C(=O)CCl [compound 10] (assay: probe-labelled cysteine peptide fold change vs DMSO (competition) (log2 fold change); higher = less target engagement (more negative = stronger competition)). Conditions: 50 µM; THP-1; incubation time: 4 h.
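Also: competitive profiling in live THP-1 cells: cysteine peptides tagged with an iodoacetamide desthiobiotin (IA-DTB) probe, intensity after compound treatment relative to DMSO-treated cells.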

Going from “ITGB1BP1_O14713_60_SSGQSNNNSDTCAEFR (UniProt O14713)” to “IRF8_Q02556_306_VFCSGNAVVCK (UniProt Q02556)”, the “probe-labelled cysteine peptide fold change” value falls from -0.427 to -0.648.

First: ITGAX_P20702_848+863_SLHLTCDSAPVGSQGTWSTSCR (UniProt P20702)
Second: INTS10_Q9NVR2_176_LFVCDVLPLIINNHDVR (UniProt Q9NVR2)
The “probe-labelled cysteine peptide fold change” value of the first is lower: 0.109 for the first, 0.579 for the second.

First: IPO7_O95373_477_ACWVLHYFCEVK (UniProt O95373)
Second: IPO4_Q8TEX9_459_ACYALENFVENLGPK (UniProt Q8TEX9)
The “probe-labelled cysteine peptide fold change” value of the first is higher: 0.827 for the first, -0.135 for the second.

First: ITGA5_P08648_156_AHGSSILACAPLYSWR (UniProt P08648)
Second: ITPA_Q9BY32_33_KLEEVVQILGDKFPCTLVAQK (UniProt Q9BY32)
The “probe-labelled cysteine peptide fold change” value of the first is higher: 0.231 for the first, -0.712 for the second.

First: INTS10_Q9NVR2_169_RFPETVVQHGVGLGEALLEAETIEEQESPVNCFR (UniProt Q9NVR2)
Second: IPO8_O15397_749_LLEVIILQCK (UniProt O15397)
The “probe-labelled cysteine peptide fold change” value of the first is lower: -0.315 for the first, 0.0209 for the second.

First: INTS4_Q96HW7_109_TAGFSPDCIMDDAINILQNEK (UniProt Q96HW7)
Second: INTS9_Q9NV88_391_QPCVVFTGHPSLR (UniProt Q9NV88)
The “probe-labelled cysteine peptide fold change” value of the first is lower: 0.123 for the first, 0.147 for the second.

Compared with “INTS1_Q8N201_611_DYVHCLHK (UniProt Q8N201)”, “IQGAP1_P46940_524_AQAHAENNEFITWNDIQACVDHVNLVVQEEHER (UniProt P46940)” is higher in “probe-labelled cysteine peptide fold change” value: 0.134 for the first, 0.213 for the second.

First: ITGA4_P13612_902_ADPHCLNFLCNFGK (UniProt P13612)
Second: IPO5_O00410_473_VQAHAAAALINFTEDCPK (UniProt O00410)
The “probe-labelled cysteine peptide fold change” value of the first is higher: 0.265 for the first, 0.166 for the second.

Going from “IPO4_Q8TEX9_566+574_AVGEPMRPLAEECCQLGLGLCDQVDDPDLRR (UniProt Q8TEX9)” to “ISL2_Q96A47_30_KKPGTAMCVGCGSQIHDQFILR (UniProt Q96A47)”, the “probe-labelled cysteine peptide fold change” value rises from -1.04 to -0.186.

Compared with “IQSEC1_Q6DN90_260_SLAESIDDALNCR (UniProt Q6DN90)”, “INTS3_Q68E01_843_YKEHPEALSCLLLQLR (UniProt Q68E01)” is higher in “probe-labelled cysteine peptide fold change” value: -0.331 for the first, -0.129 for the second.

First: ITFG2_Q969R8_326_LDVTGNGHEEVVACAWDGQTYIIDHNR (UniProt Q969R8)
Second: INTS5_Q6P9B9_58_CGLLLLR (UniProt Q6P9B9)
The “probe-labelled cysteine peptide fold change” value of the first is higher: 0.427 for the first, -0.413 for the second.

Compared with “IRF5_Q13568_272_ALTISNPHGCR (UniProt Q13568)”, “IPO5_O00410_750_GPEYLTQMWHFMCDALIK (UniProt O00410)” is higher in “probe-labelled cysteine peptide fold change” value: 0.0735 for the first, 0.43 for the second.

Going from “ITPKB_P27987_873_CHEVIGSSLLFIHDKK (UniProt P27987)” to “IRGQ_Q8WZA9_28_SALIAALCDK (UniProt Q8WZA9)”, the “probe-labelled cysteine peptide fold change” value rises from -0.358 to 0.0182.

First: INTS3_Q68E01_498_EKFPEFCSSPSPPVEVK (UniProt Q68E01)
Second: IQGAP3_Q86VI3_1411_RQACTAQTPEPLRR (UniProt Q86VI3)
The “probe-labelled cysteine peptide fold change” value of the first is higher: -0.359 for the first, -0.404 for the second.

Going from “IPO5_O00410_1017_EEAVQTFNYLCDLIESNHPIVLGPNNTNLPK (UniProt O00410)” to “ITGB2_P05107_549_YNGQVCGGPGR (UniProt P05107)”, the “probe-labelled cysteine peptide fold change” value falls from 0.275 to -0.236.

Compared with “ITM2C_Q9NQX7_96_CGVLYEDSLSSQVR (UniProt Q9NQX7)”, “ITGB2_P05107_286_CHLEDNLYKR (UniProt P05107)” is higher in “probe-labelled cysteine peptide fold change” value: -0.592 for the first, -0.0878 for the second.

First: INSR_P06213_153_NNELCYLATIDWSR (UniProt P06213)
Second: IRGQ_Q8WZA9_328_DWAQVQALLLPDAPLVCVR (UniProt Q8WZA9)
The “probe-labelled cysteine peptide fold change” value of the first is higher: 0.24 for the first, 0.00678 for the second.

Compared with “INTS13_Q9NVM9_134_ADPECCSILHGLVAAVETLCK (UniProt Q9NVM9)”, “IPO7_O95373_90_ETAPGDISPYTIPEEDRHCIR (UniProt O95373)” is lower in “probe-labelled cysteine peptide fold change” value: 0.0492 for the first, -0.00395 for the second.

First: IPO5_O00410_560_TIECISLIGLAVGK (UniProt O00410)
Second: INTS8_Q75QN2_701_LGQLLAATCK (UniProt Q75QN2)
The “probe-labelled cysteine peptide fold change” value of the first is higher: 0.131 for the first, 0.113 for the second.

For “IPO5_O00410_229_HFADLLPGFLQAVNDSCYQNDDSVLK (UniProt O00410)”, the “probe-labelled cysteine peptide fold change” value was 0.0234.
